From PubChem BioAssay AID588590 (National Center for Advancing Translational Sciences (NCATS), 2011)
In all, about 390,000 compounds went through this assay and about 4,000 (1%) were called active. Inconclusive means that the source gave no clear call. Such entries were picked first, then a sample of the others. The call rests on the fitted dose curve; in most records, active means well fitted inhibition curve with a large enough effect; inconclusive means small, poorly fitted or top-dose-only effect, or another doubt; inactive means no such curve, though single readings can be large or run the other way. Potencies beside an inconclusive call are fits to weak or partial responses and may not hold up.

Protein sequences, listed by entry. Tags and fused reporters are not part of them. Lines headed by an entry give the natural chain unless they say otherwise; changes in a name come on top.
UniProt Q9UNA4: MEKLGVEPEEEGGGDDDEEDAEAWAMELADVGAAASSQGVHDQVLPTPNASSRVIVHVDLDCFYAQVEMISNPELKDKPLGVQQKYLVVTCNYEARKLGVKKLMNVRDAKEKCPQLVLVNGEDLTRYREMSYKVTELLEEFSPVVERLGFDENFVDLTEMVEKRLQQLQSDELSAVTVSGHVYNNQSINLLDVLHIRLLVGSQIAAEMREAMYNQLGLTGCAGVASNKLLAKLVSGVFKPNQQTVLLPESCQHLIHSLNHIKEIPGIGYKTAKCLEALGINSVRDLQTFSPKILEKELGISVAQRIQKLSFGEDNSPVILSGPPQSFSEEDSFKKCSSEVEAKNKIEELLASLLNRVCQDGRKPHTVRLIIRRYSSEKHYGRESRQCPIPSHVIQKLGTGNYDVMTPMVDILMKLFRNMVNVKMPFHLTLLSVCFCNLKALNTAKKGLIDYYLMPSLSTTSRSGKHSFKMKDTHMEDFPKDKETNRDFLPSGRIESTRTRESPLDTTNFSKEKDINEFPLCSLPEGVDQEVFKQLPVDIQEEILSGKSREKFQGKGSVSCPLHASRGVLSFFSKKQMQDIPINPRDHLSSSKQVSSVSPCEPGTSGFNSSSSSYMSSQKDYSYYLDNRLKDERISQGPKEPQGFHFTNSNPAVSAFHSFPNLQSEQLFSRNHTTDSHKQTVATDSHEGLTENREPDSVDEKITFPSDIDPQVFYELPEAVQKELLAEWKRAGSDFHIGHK

biological target: DNA polymerase iota (Homo sapiens) (UniProt Q9UNA4); assay: qHTS for Inhibitors of Polymerase Iota; conditions: Pol iota fluorescent replication assay, 10 min; series mostly up to 115 µM; activity, negative = inhibition: at the top concentration
Procedure, shortened: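 Pol iota at 10 nM preincubated 15 min with compounds at room temperature; reaction started with fluorescent substrate, 50 nM final. Fluorescence read kinetically at 0 and 10 min; buffer-only wells as negative control.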
Potency means the concentration at half of the fitted maximal effect.

activity, negative = inhibition, inactive:
CC(=O)NC1=NN(C(C)=O)C(C)(c2ccc3ccccc3c2)S1 (stereo not given) 10.6%
COc1cc(/C=C2\SC(=O)N(c3ccc(O)cc3)C2=O)cc(OC)c1OC 4.29%
Cc1ccc(SCC(=O)NCCc2ccc(F)cc2)cc1 33.8%
c1ccc2nccnc2c1 -20.3%
COc1ccc(Cl)cc1Nc1sc(C(=O)c2ccccc2)c(N)c1C(=O)Nc1ccccc1 26.3%
CC(C)c1ccc(NC(=O)c2cc3c(s2)-c2ccccc2SC3)cc1 10.6%
CCCN(C(=O)Cc1nc(N)n[nH]1)C1(C(=O)Nc2ccccc2C)CCCCC1 7.94%
COc1ccc2c(c1)c1c(c(=O)n(-c3cccc(Cl)c3)c(=O)n1CC(=O)N1CCCC1)n2C -0.0165%

Potency, active:
Cc1cccc(N2CCN(C(=O)CCS(=O)(=O)c3ccc(Br)cc3)CC2C)c1 (stereo not given) 44.7 µM

Potency, inconclusive:
CCOC(=O)C1=C(C)N=C2SC=C(C)N2C1c1ccc(OC)cc1 (stereo not given) 22.4 µM [inhibitor, full curve, poor fit]
CC1(N2CCCCC2)CC2(O)C(=[N+]1[O-])CCC/C2=N\O (stereo not given) 17.8 µM [inhibitor, partial curve, poor fit]
Cn1c(=O)c2c(n(Cc3ccccc3)c1=O)NC(=O)C2CC(=O)O (stereo not given) 31.6 µM [inhibitor, partial curve, poor fit]
CCNc1[nH]c(=O)n(C)c(=O)c1N=O 25.1 µM [inhibitor, single point]
COc1ccc(OC)c(/C=N/NC(=O)c2cc(-c3ccc(C)o3)nc3ccccc23)c1 79.4 µM [inhibitor, single point]
O=C(O)c1ccc(CN2C(=O)CSC2=S)cc1 31.6 µM [inhibitor, partial curve, poor fit]
COCCNC(=O)C(c1cccs1)N(C(=O)Cn1nnc2ccccc21)c1cccc(C)c1 (stereo not given) 35.5 µM [inhibitor, single point]
Cc1cc(N=Cc2c(O)ccc3ccccc23)no1 35.5 µM [inhibitor, single point]
CC(=O)c1ccc(-c2ccc(C(=O)NC3CCCCCC3)o2)cc1 89.1 µM [inhibitor, partial curve, poor fit]
CCOc1ccc(C2CC(=O)n3nc(-c4ccc(C)cc4)nc3S2)cc1OC (stereo not given) 89.1 µM [inhibitor, single point]
CN(C)S(=O)(=O)N(CC(=O)N(Cc1ccccc1)Cc1ccccc1)c1ccccc1 17.8 µM [inhibitor, partial curve, poor fit]
N#Cc1c(NC(=O)c2cnn3cccnc23)sc2c1CCCC2 4.47 µM [inhibitor, full curve, poor fit]
N#C/C(N=Nc1ccccc1O)=N\Nc1ccccc1O 79.4 µM [inhibitor, partial curve, poor fit]
CCOC(=O)CSC1=C(C#N)C(c2ccc3c(c2)OCO3)CC(=O)N1 (stereo not given) 7.08 µM [inhibitor, single point]
CC1=C(CC(=O)c2ccc(Cl)cc2)C(=O)c2ccccc2C1=O 22.4 µM [inhibitor, single point]
C=C1CC[C@@H]2[C@](C)(CO)[C@H](O)CC[C@@]2(C)[C@@H]1/C=C/C1=CCOC1=O 89.1 µM [inhibitor, single point]
Cc1ccc(-c2cc(C(=O)Nc3ccc(S(=O)(=O)Nc4ncccn4)cc3)[nH]n2)c(O)c1C 17.8 µM [inhibitor, full curve, poor fit]
O=[N+]([O-])c1cc2c(cc1/C=N\NS(=O)(=O)c1ccccc1)OCO2 7.94 µM [inhibitor, full curve, poor fit]
CC(=O)Nc1ccc(C(=O)CSc2nnc(-c3ccccc3)n2-c2ccccc2)cc1 39.8 µM [inhibitor, partial curve, poor fit]
CC(=O)Nc1sc(/C(C#N)=C\c2cccc(Cl)c2)nc1-c1ccc(C)cc1 89.1 µM [inhibitor, partial curve, poor fit]
CC(=O)c1ccc(S(=O)(=O)Nc2cccc(-c3ccc(N4CCOCC4)nn3)c2)cc1 56.2 µM [inhibitor, partial curve, poor fit]
O=C(COc1ccc(-n2cnnn2)cc1)Nc1cccc(Cl)c1Cl 56.2 µM [inhibitor, partial curve, poor fit]
O=C(Nc1nc(-c2ccc(F)cc2)cs1)c1cnccn1 79.4 µM [inhibitor, partial curve]
CCCn1c2ccccc2c2nnc(SCC(=O)Nc3nnc(CC(=O)OCC)s3)nc21 20 µM [inhibitor, full curve, poor fit]
CCC1=C(OC(=O)N(CC)CC)N2C(=O)OC(=NCc3ccccc3)[C@]2(C)[C@H]2C1=CC[C@H]1C(=O)NC(=O)[C@H]12 39.8 µM [inhibitor, single point]
Cc1ccccc1NC(=O)NC1(C(=O)N2CCC(O)CC2)CCCCC1 89.1 µM [inhibitor, partial curve, poor fit]
CN(C(=O)COC(=O)COc1ccc(Cl)cc1Cl)c1c(N)n(Cc2ccccc2)c(=O)[nH]c1=O 89.1 µM [inhibitor, single point]
COc1ccccc1/C=C(\C#N)C(=O)c1cccn1C 8.91 µM [inhibitor, partial curve, poor fit]
CC1=NN(C(N)=S)C(=O)C1N=Nc1ccc(S(N)(=O)=O)cc1 (stereo not given) 70.8 µM [inhibitor, single point]
Cc1ccc2nc(COC(=O)c3cnccn3)cc(=O)n2c1 56.2 µM [inhibitor, partial curve, poor fit]
Cc1ccc(NC(=O)c2cc(S(=O)(=O)N3CCCCC3)ccc2N2CCOCC2)cc1F 39.8 µM [inhibitor, single point]
O=C(CSc1ccccc1)Nc1ccc(-c2nc3ccccc3[nH]2)cc1 112 µM [inhibitor, partial curve, poor fit]
CC(NC(=O)c1sc2cc([N+](=O)[O-])ccc2c1Cl)C(C)(C)C (stereo not given) 28.2 µM [inhibitor, partial curve, poor fit]
Cc1c(NC(=O)c2ccco2)cccc1-c1nc2cccnc2s1 56.2 µM [inhibitor, single point]
O=C(O)C1Cc2ccccc2CN1C(=O)COc1ccc(Br)cc1 (stereo not given) 31.6 µM [inhibitor, partial curve]
C/C(=C\C(=O)c1ccccc1)NNc1nc2ccccc2s1 22.4 µM [inhibitor, single point]
c1ccc(CN(Cc2ccco2)C(c2ccncc2)c2nnnn2C2CCCC2)cc1 (stereo not given) 22.4 µM [inhibitor, partial curve, poor fit]
Cc1nc(S/C(=C\c2ccc(OCc3ccccc3Cl)cc2)C(=O)O)n[nH]1 8.91 µM [inhibitor, full curve, poor fit]
COc1ccc2oc(-c3ccc(C)c(NC(=O)COc4cc(C)cc(C)c4)c3)nc2c1 3.16 µM [inhibitor, full curve, poor fit]
O=C(Nc1cccnc1)c1sc(Nc2ccccc2)nc1-c1ccccc1 17.8 µM [inhibitor, full curve]
O=C(Nc1ccc(Cl)cc1)N1CCN(c2ccccc2)CC1 39.8 µM [inhibitor, single point]
Fc1cccc(CCN2CCNC[C@@H]2c2ccccc2)c1 39.8 µM [inhibitor, partial curve, poor fit]
COc1cc(/C=C2\C(=N)N3N=C(S(C)(=O)=O)SC3=NC2=O)cc(OC)c1OCCOc1ccccc1C 20 µM [inhibitor, partial curve]
CCCCOc1ccc(/C=C/C(=O)Nc2ccc(C(N)=O)cc2)cc1 100 µM [inhibitor, single point]
CCOC(=O)C1(Cc2cccc(Cl)c2)CCCN(C(=O)CN2C(=O)CSC2=O)C1 (stereo not given) 89.1 µM [inhibitor, single point]
Cc1ccc2c(c1)-c1c(cnn1CC(=O)NC(C)CCc1ccco1)CO2 (stereo not given) 50.1 µM [inhibitor, single point]
CC12CCC(=O)N1C(C(=O)N1CCN(S(=O)(=O)c3ccc(Br)cc3Cl)CC1)CS2 (stereo not given) 89.1 µM [inhibitor, single point]
Cc1ccc(NC(=O)CSc2nc(-c3ccco3)nc3cc(=O)[nH]n23)cc1C 79.4 µM [inhibitor, single point]
O=C(CNC(=O)C1CCCCC1)NCc1ccco1 15.8 µM [inhibitor, partial curve, poor fit]
Cc1cccc2nc(-c3cccc(NS(=O)(=O)c4ccccc4)c3)cn12 1.58 µM [inhibitor, full curve, poor fit]
NC(=O)[C@H]1CC2(CC(c3cccc(NC(=O)CC(c4ccccc4)c4ccccc4)c3)=NO2)CN1C(=O)c1ccccc1C(=O)c1ccccc1 (stereo not given in full) 5.01 µM [inhibitor, full curve, poor fit]

3 records drawn at random from those above, as already listed:
Potency, inconclusive:
CC1(N2CCCCC2)CC2(O)C(=[N+]1[O-])CCC/C2=N\O (stereo not given) 17.8 µM [inhibitor, partial curve, poor fit]
N#Cc1c(NC(=O)c2cnn3cccnc23)sc2c1CCCC2 4.47 µM [inhibitor, full curve, poor fit]
Cc1ccc2nc(COC(=O)c3cnccn3)cc(=O)n2c1 56.2 µM [inhibitor, partial curve, poor fit]
